This passage reports binding results from publication PMC3362529.

In the experiment the target is T1, GFP-DmRad1 (Drosophila) (UniProt Q9VQD4).
T1 sequence: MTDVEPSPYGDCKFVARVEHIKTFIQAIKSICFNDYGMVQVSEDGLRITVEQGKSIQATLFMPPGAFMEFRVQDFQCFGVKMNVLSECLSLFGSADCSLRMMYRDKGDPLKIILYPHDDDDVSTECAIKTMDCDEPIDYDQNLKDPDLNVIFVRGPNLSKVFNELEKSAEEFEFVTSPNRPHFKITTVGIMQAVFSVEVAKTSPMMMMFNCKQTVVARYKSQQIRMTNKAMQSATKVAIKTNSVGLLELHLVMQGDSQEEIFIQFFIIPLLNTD
The experiment can be described thus: co-IP; HA-DmHus1, FLAG-DmRad9A and GFP-DmRad1 co-expressed in S2 cells; lysis buffer PBS, 1% Triton X-100, protease inhibitors; pre-cleared extracts incubated overnight at 4°C with anti-GFP rabbit antibodies, recovered on protein A-coated beads for 2 h at 4°C; western blots with anti-HA or …; normal rabbit IgG as negative control. (In general: A western blot detects proteins with antibodies after separation by electrophoresis.)

No constants are given. Whether binding was seen depends on the method and setting. Binding seen in cells or lysates may run through a third protein. Some entries that bind do so weakly or less than the wild type. Sequences can lack the tags named with a protein.

B1: FLAG-DmRad9A (protein, UniProt O96533 1-456)
chain: MKYTLEGSNARVIAKAVQSLSKVGKEMFIEIDQQSLQMRAINATQSAVGSISFKRSMFEVYDMPPHSDFYCKISMKGCLAVFRNMNEVEYCELNLLDNQTNLQVNLRCKLETTKEATISIIDDQNINTNINTDQMPNIIRGDHKLLTDISNNFNSSEEELTLEANSGSVVAKNYIEGARVNDKFMRTQLKLKPSEFEQYQVTKETVITFCIKEFRAFLLFAECLNASLTLEFDEAGMPFLLKIKKHGEIECLLIMSTLSPDDISFSEDYCQKDLTVQDEDVRAAAAKRKSSVSKPNVTNKRKGSSSEPAAVQPKRRVEETQLESSLDNPLFQFRDSEAPSVQHPRILAEVDTVVLIEDEAEQEALMLAAADAALEASMAPAPEPPNSTEVCFINTDDSQQPKPAKSSSDEDETIPQSPERPNKVLGVLLGLLQGCVSRLKTMLRLDEHLISGYELL
B1: the binding result is on record as “binds”.
